Test results taken from paper doi:10.1101/2022.01.21.477277.

Legend:
[1] = molecular target: PLP^F2-F3 (aa 584-1811), yeast two-hybrid fusion (Drosophila); experiment: two-hybrid
[2] = molecular target: PLP^F2 (aa 584-1376), yeast two-hybrid fusion (Drosophila); experiment: two-hybrid

binding [1]: no binding
B1: Poe^F3 (aa 2301-3500), yeast two-hybrid fusion (domain or fragment, UniProt Q9VLT5 2301-3500)
chain: TGHPGLVYASMQTSNNPIILMITPERIYLQEIKAQSAKSRIMDVVGIRHAVAGVEKTTLLLLCEDGSLRIFSAQPEYTSFWLSPQVQPFGNQLYSSTLMAKGGGSGSTSKSKSNTASGKMTSRKASQQQKQPTAGGQPVFPIDFFEHCNMLADVEFGGNDLLQIYNKQKLKTRLFSTGMFVASTRSNGFTLEVINNDPNVVIVGIRVLIGTQDVQRAPQSVTILGRTIPTPVRRARWFDIPLTREEMLQSDKLLKVVFAKAPDPEHVTLLDCIEVYGKSKELVGWPDESEDVTVPGSSAPAVSSSQASSANFGEGFNCITQLDRMANHLLEVMDCALHLLGSGVPASMRQKAVKTASALLLLPTPNPVQTQARYVLATLYGTRALYHNYKDGVLLQFVNRELQSMQPKLEKLETLREIDPEAFYRLVLMVRGIANARPQSLAKICVENNYDIVPTLMGIVLELHKVTPTLDEPVNIVKRGLCQPETIVHCLVEIMYGFALADPGQVGRMTKYFIDLLKHDASVISHSAKEALILLLSPRMKRRKVAIVTPPACSTPTPSTSTMQALQAAASSAASDIIEEAAGVVVDGSVGGGGLPEPNADAEGAAVGVGGVGQQQMLNLEAFMGGGFPRLLGLPEDADDEAIMDIAIALSLQQHGGDANALQSLQQGLANLQGIRQATAMAAAVNAAANVSLGGSDDDEGSNVATDGSTLRTSPAEPAGSGGSESGGSGVESIGGTSARSSNFGDHANASPPRQGSTKDDQEQPGPSGVAGSGGVAVLSAMSSSEDNEANEDDKLSKLHDLRIAVLESIIQHLGTFDLCNGLQAIPLIQVILMLTTDLNGNNERDQQVLHDLLTALVDYVEIGKRGAAARMETKCPGNEVRLALLSLFGVLMGKTKSKQTGTTSPPHQFKDNSSFVASTTANVLSKSGAFVYALEALNTLLVHWKNVLGDPYAAGGGLASQSAQASGGASGPGVQLLKPIKHGPKPDISILIPHNYLKNYPDIFESYDGLLTEIIVRLPYQILRLSSAHPDNYDSGFCEAMTFTLCEYMMLNLNTLLRRQVRKLLMYICGSKEKFRMYRDGHSLDAHFRVVKRVCNIVSSKTGAPYNANPPMLSYDALVELTEHLRTCQEISQMRTGNWQKFCVVHEDALAMLMEIACYQLDDGVSPIIIQLLQAAVCNLPPPSGSKQAQPQPSTSSAS

binding [2]: binds
B2: Hyd F4 (aa 2412-2887), yeast two-hybrid fusion (domain or fragment, UniProt P51592 2412-2885)
chain: AKIPNLESVQVGTNHSKYVVPFSSILRSRTVSGSSRDQSTLQRRGSNSKILWRSARERKALNLDARPYTPPNSSDNATPESLNDHLSVHLQQIGERLYPKIHSINQTHAPKITGMLLEIPTPQLLSVISSDETLRQKVNEAIEIITFKQKSETSAQSSQPKKSPSVVVVDPVDDDNEPLFYSPGKRGFYTPRQGFASFERINAFRNIGRLIGLCLLQNELLPLFLQRHVLKYILGRKIKFHDLAFFDPALYESFRQIIQNAQTKEGEETINRMELCFVIDLMKEEGCGNRELIPGGRDVAVTSSNIFEYVRRYTEYRLIKSQEKALEALKDGVFDVLPDNSMINLTAEDLRLLLNGVGDINVSTLISYTTFNDESSEGPDKLLKFKKWFWSIVEKMNIMERQDLVYFWTGSPALPASEEGFQPLPSVTIRPADDSHLPTANTCISRLYIPLYSSKSILRSKMLMAIKSKNFGFV

These are yes or no findings as the source states them, for the method shown. For some assays here: Binding can be weak; no strength is given. Tags and fused reporters may be left off the sequences shown. Each block holds one binder with its values, some of them ahead of it.
